# Assays:
# [1] = CAII immobilization on dEMA-thiol-modified Epic 5041 plate surface (Example 1)
# [2] = system: carbonic anhydrase (CAII); test: furosemide binding on immobilized CAII, Epic biosensor (Example 1)
# [3] = CAII immobilization on cystine-derived thiol-modified Epic 5046 plate surface (Example 2)
# [4] = CAII immobilization on thiol-modified copolymer (AA/MAm) surface (Example 3); conditions: protein:linker 1:6
# [5] = system: carbonic anhydrase (CAII); test: furosemide binding on immobilized CAII, Epic biosensor (Example 3)
# Procedure: Step 3. Binding of protein inhibitor: The plate was equilibrated at ambient (25° C.) temperature for about 30 min before rinsing with PBS (on Biomek, following standard rinsing protocol). The plate was centrifuged and soaked in 0.1% DMSO in PBS for about 4 h at ambient temperature.
# The plate was then read in the Epic® instrument for 20 min.
# [6] = CAII concentration 10 micrograms/mL
# [7] = CAII concentration 25 micrograms/mL
# [8] = CAII concentration 50 micrograms/mL
# [9] = CAII concentration 75 micrograms/mL
# [10] = CAII concentration 100 micrograms/mL
# [11] = surface made with cystamine 50 mM
# [12] = surface made with cystamine 200 mM
# [13] = surface made with cystamine/glycine 25/25 mM
# [14] = surface made with cystamine/glycine 100/100 mM
# [15] = surface made with cystine 10 mM
# [16] = surface made with saturated cystine
substance,measurement,setting,value
"CAII: carbonic anhydrase (CAII, Sigma), modified with maleimide linker MAL-AHA-NHS at the stated ratio before immobilization; ratio 0 is unmodified",Protein Immob. level,[1]; [6],258 pm
same,Protein Immob. level,[1]; [7],514 pm
same,Protein Immob. level,[1]; [8],1263 pm
same,Protein Immob. level,[1]; [9],2083 pm
same,Protein Immob. level,[1]; [10],3174 pm
same,Protein Immob. level,[1]; MAL-AHA-NHS/CAII ratio 0 (unmodified CAII),196 pm
same,Protein Immob. level,[1]; MAL-AHA-NHS/CAII ratio 3,2177 pm
same,Protein Immob. level,[1]; MAL-AHA-NHS/CAII ratio 6,3248 pm
same,Protein Immob. level,[1]; MAL-AHA-NHS/CAII ratio 12,4075 pm
same,Protein Immob. level,[1]; MAL-AHA-NHS/CAII ratio 24,4520 pm
same,Protein Immob. level,[1]; MAL-AHA-NHS/CAII ratio 48,4612 pm
same,Protein Immob. level,[1]; MAL-AHA-NHS/CAII ratio 96,4506 pm
same,immobilization level (plateau),[1]; levels off from about 12 to about 100 equivalents of maleimide-linker reagent to protein,"about 4,500 picometers (pm)"
same,Availability %,[2]; [6],−2%
same,Availability %,[2]; [7],8%
same,Availability %,[2]; [8],18%
same,Availability %,[2]; [9],24%
same,Availability %,[2]; [10],25%
same,Availability %,"[2]; binding observed/max binding*100, MAL-AHA-NHS/CAII ratio 0",−10%
same,Availability %,"[2]; binding observed/max binding*100, MAL-AHA-NHS/CAII ratio 3",20%
same,Availability %,"[2]; binding observed/max binding*100, MAL-AHA-NHS/CAII ratio 6",23%
same,Availability %,"[2]; binding observed/max binding*100, MAL-AHA-NHS/CAII ratio 12",25%
same,Availability %,"[2]; binding observed/max binding*100, MAL-AHA-NHS/CAII ratio 24",23%
same,Availability %,"[2]; binding observed/max binding*100, MAL-AHA-NHS/CAII ratio 48",22%
same,Availability %,"[2]; binding observed/max binding*100, MAL-AHA-NHS/CAII ratio 96",20%
same,Protein immob-level,[3]; Ratio of CAII:Maleimide linker 0 (unmodified protein reference),189 pm
same,Protein immob-level,[3]; Ratio of CAII:Maleimide linker 3,604 pm
same,Protein immob-level,[3]; Ratio of CAII:Maleimide linker 6,937 pm
same,Protein immob-level,[3]; Ratio of CAII:Maleimide linker 12,1522 pm
same,Protein immob-level,[3]; Ratio of CAII:Maleimide linker 24,2149 pm
same,immobilization level,[3]; about 24 equivalents of maleimide-linker reagent to protein,"about 2,000 picometers (pm)"
same,Total Immob.,[4]; [11],"2,254.83 RU"
same,Total Immob.,[4]; [12],"2,335.86 RU"
same,Total Immob.,[4]; [13],"2,722.71 RU"
same,Total Immob.,[4]; [14],"2,692.57 RU"
same,Total Immob.,[4]; [15],"2,807.35 RU"
same,Total Immob.,[4]; [16],"3,258.16 RU"
same,Activity %,[5]; [11],23.35%
same,Activity %,[5]; [12],28.77%
same,Activity %,[5]; [13],27.35%
same,Activity %,[5]; [14],26.71%
same,Activity %,[5]; [15],26.16%
same,Activity %,[5]; [16],22.38%
